Test results published in paper PMC6181354, “Domain architecture of BAF250a reveals the ARID and ARM-repeat domains with implication in function and assembly of the BAF remodeling complex”.
No constants are given. Whether binding was seen depends on the method and setting.

Sequences of proteins named here, by UniProt entry; tags and fusion partners are left off. A change or cut given only in a name is not applied to a line headed by its entry. A line that says so, or that is headed by a name, gives the form on record, which may keep a tag or linker. Residues count along the entry.
ARID (residues 968–1143) of BAF250a, wild type (O14497, residues 968-1143): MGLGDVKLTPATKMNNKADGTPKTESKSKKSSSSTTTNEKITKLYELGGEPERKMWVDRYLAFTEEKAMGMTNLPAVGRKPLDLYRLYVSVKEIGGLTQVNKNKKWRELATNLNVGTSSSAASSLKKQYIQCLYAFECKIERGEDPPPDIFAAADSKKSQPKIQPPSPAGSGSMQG
ARID (residues 968–1143) of BAF250a, V1067G mutant (O14497, form named): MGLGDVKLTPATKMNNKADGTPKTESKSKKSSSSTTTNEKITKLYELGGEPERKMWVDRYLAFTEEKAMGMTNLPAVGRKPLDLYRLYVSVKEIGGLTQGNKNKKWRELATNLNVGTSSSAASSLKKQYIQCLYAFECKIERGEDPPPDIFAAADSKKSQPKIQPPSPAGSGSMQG

What was measured:
[1] = biological target: ARID (residues 968–1143) of BAF250a, wild type (human) (UniProt O14497); test: SEC; gel-filtration step of the purification; buffer 50 mM NaH2PO4, pH 6, 0.025 mM EDTA; both purified
[2] = biological target: ARID (residues 968–1143) of BAF250a, V1067G mutant (human) (UniProt O14497); test: as above

Row | Substance | binding [1] | binding [2]
1 | ARID (residues 968–1143) of BAF250a, wild type (from UniProt O14497 968-1143) (domain or fragment) | no binding | 
2 | ARID (residues 968–1143) of BAF250a, V1067G mutant (from UniProt O14497 968-1143) (domain or fragment) |  | no binding
